Here are results for four molecules from article doi:10.1101/2025.05.09.653063 (bioRxiv, 2025).

Like-named read-outs stand apart in the source and are kept apart here. These are yes or no findings as the source states them, for the method shown. Binding seen in cells or lysates may run through a third protein. Here binding means that the protein was enriched with, or labelled near, the bait; the list need not be complete. For some of these results: Where a sequence is shown, tags or fusion partners need not be part of it.

Holding throughout (assay): affinity purification with mass spectrometry
For assay [1], the target named is His-tagged ePK2 (SiRe_2030) (Saccharolobus islandicus REY15A) (UniProt F0NC32).
In assay [2] the target is T1, proteasome α subunit (PsmA), genome-encoded, non-tagged (Saccharolobus islandicus REY15A (endogenous in E233S)) (UniProt C3MQ43).
T1 sequence: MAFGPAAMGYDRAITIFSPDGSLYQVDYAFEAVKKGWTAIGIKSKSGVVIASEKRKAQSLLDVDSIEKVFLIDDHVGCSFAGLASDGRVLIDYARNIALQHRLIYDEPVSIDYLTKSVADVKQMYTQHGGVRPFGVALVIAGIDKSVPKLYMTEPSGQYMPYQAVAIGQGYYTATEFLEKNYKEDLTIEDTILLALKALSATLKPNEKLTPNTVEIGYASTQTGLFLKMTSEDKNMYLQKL

Assay [3] addresses His-tagged ePK2 (SiRe_2030) (Saccharolobus islandicus REY15A) (UniProt F0NC32). The source holds these as a separate data set.

On to “fructose-1,6-biphosphate aldolase/phosphatase (Fbp) (from UniProt F0NII8) (enzyme)”, for which the binding entry in assay [1] is reported as “binds”.

For “potential 20S proteasome assembly factor SiRe_1724, endogenous (from UniProt F0NIK1)”, the binding result in assay [2] is on record as “binds”.

Take “potential 20S proteasome assembly factor SiRe_1163, endogenous (from UniProt F0NEV0)”: the binding result in assay [2] is recorded as “binds”.

B1: His-tagged wild type PsmA (natural protein, Saccharolobus islandicus REY15A, UniProt C3MQ43 1-241, looked up)
chain: MAFGPAAMGYDRAITIFSPDGSLYQVDYAFEAVKKGWTAIGIKSKSGVVIASEKRKAQSLLDVDSIEKVFLIDDHVGCSFAGLASDGRVLIDYARNIALQHRLIYDEPVSIDYLTKSVADVKQMYTQHGGVRPFGVALVIAGIDKSVPKLYMTEPSGQYMPYQAVAIGQGYYTATEFLEKNYKEDLTIEDTILLALKALSATLKPNEKLTPNTVEIGYASTQTGLFLKMTSEDKNMYLQKL
Take B1: in assay [3], the binding result is listed as “binds”.
